Test results reported in article PMC4971072, “Chemically Homogenous Compounds with Antagonistic Properties at All α1-Adrenoceptor Subtypes but not β1-Adrenoceptor Attenuate Adrenaline-Induced Arrhythmia in Rats” (Frontiers in Pharmacology, 2016).
Where a name gives a salt, the structure may show the parent alone.

What was measured:
[1] = molecular target: α1-adrenoceptor; assay: α1-adrenoceptor radioligand binding assay ([3H]-prazosin, rat cerebral cortex); details: read-out: Adrenergic receptors Ki α1
Procedure: The α1- and β1-adrenoceptor radioligand binding assay was performed on rat cerebral cortex. […] The cell pellet was resuspended in the Tris–HCl buffer and centrifuged again. Radioligand binding assays were performed in plates (MultiScreen/Millipore). […] The incubation was terminated by rapid filtration through glass fiber filters (Whatman GF/C) using a vacuum manifold (Millipore). The filters were then washed twice with the assay buffer and placed in scintillation vials with a liquid scintillation cocktail. […] All the assays were made in duplicate and the inhibitory constants (Ki) were estimated.
LO–labeled ligand concentration, KD–dissociation constant of labeled ligand

[2] = system: adrenaline-induced arrhythmia in rats; assay: Therapeutic antiarrhythmic activity in adrenaline-induced arrhythmia; assay type: in vivo, rat; details: i.v. at ED84 at the peak of adrenaline-induced arrhythmia (20 μg/kg)
Procedure: The experiment was performed according to the method described by Szekeres and Papp ([1968]). The arrhythmia was evoked by the intravenous administration of adrenaline (20 μg/kg) into the caudal vein in anesthetized rats (thiopental, 75 mg/kg). […] The range of doses was 0.325−0.504 mg/kg. The ECG was recorded constantly for 5 min as well as in the 10th and 15th min of the experiment. The criterion of antiarrhythmic activity was the reduction of premature ventricular contractions in comparison with the control group (Sapa et al., [2011]).

[3] = system: lipid peroxidation in rat brain homogenate; assay: Lipid peroxidation in rat brain homogenate (TBARS), antioxidant effect; assay type: biochemical; details: 10^−3 M
Procedure: The rat brain homogenate containing 10 mg tissue/ml was prepared in 0.9% saline. The rates of membrane lipid peroxidation were measured by the formation of thiobarbituric acid reactive substances (TBARS). Rat brain homogenates (1 ml) were incubated at 37°C for 5 min with 10 μl of a tested compound or vehicle. Lipid peroxidation was initiated by the addition of 50 μl of 0.5 mM FeCl2 and 50 μl of 2.0 mM ascorbic acid. After 30 min of incubation, the reaction was stopped by adding 0.1 ml of 0.2% butylated hydroxytoluene (BHT). Thiobarbituric acid reagent was then added and the mixture was heated for 15 min in a boiling water bath.

Compound: COc1ccccc1N1CCN(CCCOc2cc(C)ccc2C)CC1 [HBK-17, 1N-[3-(2,5-dimethylphenoxy)propyl]-4N-(2-methoxyphenyl)piperazine hydrochloride]
- Ki [1]: 12.9 nM
- therapeutic antiarrhythmic activity (premature ventricular contractions) [2]: restored normal heart rhythm
- inhibition of lipid peroxidation (in words) [3]: inhibited lipid peroxidation
- % reduction of absorbance (% antioxidant activity) ([3]; TBARs at 532 nm): 14.30%
- Absorbance ([3]; TBARs at 532 nm): 0.773 ± 0.009
